Assay: physchem
Conditions: octanol/water

## C[C@@H]1CN(Cc2ccc(F)cc2)CCN1C(=O)COc1ccc(Cl)cc1NC(N)=O [BX 471 FREE BASE]
  logP: 2.1

From ChEMBL document CHEMBL2176887, “Chemokine receptor antagonists” (J Med Chem, 2012)
